Measurements published in paper PMC12054373.

Tests used:
[1] = target: T1, bS21 (UniProt Q9KD65); assay: filter binding; details: Filter binding: 20 mM Tris-HCl pH 7.5, 150 mM NaCl, 10 mM MgCl2, 1 mM TCEP, 5% glycerol, 0.001% SDS, ~2.5 nM RNA, 20°C, 15 min, residues 1-57, label: 5' 32P, probe letters rebuilt from the primers and the genome; for binding result: recombinant protein
T1 sequence (looked up): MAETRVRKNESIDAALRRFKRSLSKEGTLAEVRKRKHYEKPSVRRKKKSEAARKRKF

[2] = target: T1, bS21; assay: footprinting (in-line probing); details: recombinant protein, residues 1-57, label: 5' 32P, probe letters rebuilt from the primers and the genome

| Sequence | binding result ([1]; 0.67 µM bS21, about same as WT) | binding result ([1]; 0.67 µM bS21) | other results |
| --- | --- | --- | --- |
| GGAUCGAUGAAGCUCCUUGUGAUGGCUUGAGGCGCCCAGCCUUGGGUCAUUGCUGGGAGAAAAGGUUGUUGGGCGAUCCACAAAGGCAUGUGGGCGAUGACCCACCAACUG [OLE83-191 M2] | binds |  |  |
| GGUGUCUUUUAGAAUAAGAGUGGUGCAGUAUUCUAGUCAAUCCUCCAUUCUUGAAGGCGGGGCUAAAAAUCCGCCAAAGGGCACAUCGAUGAAGCUCCUUGUGAUGGCUUGAGGCGCCCAGCCUUGGGUCAUUGCUGGGAGAAAAGGUAGUAGGGCGAUCCACAAAGGCAUGUGGGCGAUGACCCUCCUACUGUGGAGGCCUUUUUCUCUGCUGCUUAUGUAUGGACAUAGGGCAAGAGCAAAGGGUAUGAACCUGCGAAGGCAAGCUAGGGAGCUUGUCAGCAGCGUAGCCUGCCUUGAGUGGAGUAGAGGGGAUUAUGGGUUUUGAAGCAAUCCGCUGUCGGCCAACAGCCAUUGCCUCUCUAGUACCAUAUGAAAUCUGCUCUGCAAAAGAGGAUAAGAGAAUGGCAAGGGAUUGCCGAGGAAAACUCCUAGACUGUUCCAUGGGGACAUUUAAAGAGGAUUACAGUGUGGACUAAGUGGUAAUCCAGUCUGGCGUUUGGUGACAGCGCCAAGUUCAACAUAAAGGGAAACCGCCAGCGCGGCGACGCACUGGUGUUGAAUUGGGAAAUCCUACUGGACCUAAGCCACAGAGUUUACUCUUUAAAUGACCACUCUCAUACAUACGCAGUCGGAACG [OLE1-637] |  |  | Kd ([1]; 10 mM MgCl2, recombinant …): 0.67 µM |
| GGAUCGAUGAAGCUCCUUGUGAUGGCUUGAGGCGCCCAGCCUUGGGUCAUUGCUGGGAGAAAAGGUUGCUGGGCGAUCCACAAAGGCAUGUGGGCGAUGACCCAUCAACUG [OLE83-191 M3] | binds |  |  |
| GGAUCGAUGAAGCUCCUUGUGAUGGCUUGAGGCGCCCAGCCUUGGGUCAUUGCUGGGAGAAAAGGUUGCUGCGCGAUCCACAAAGGCAUGUGGGCGAUGACGCAUCAACUG [OLE83-191 M4] |  |  | binding result ([1]; 0.67 µM bS21, low but detectable): binds more weakly; binding result ([2]; pattern changes with bS21): binds more weakly |
| GGAUCGAUGAAGCUCCUUGUGAUGGCUUGAGGCGCCCAGCCUUGGGUCAUUGCUGGGAGAAAAGGUAGUACCGCGAUCCACAAAGGCAUGUGGGCGAUGACGGUCCUACUG [OLE83-191 M7] |  | no binding | binding result ([2]; 1 µM bS21, no pattern change): no binding |
| GGAUCGAUGAAGCUCCUUGUGAUGGCUUGAGGCGCCCAGCCUUGGGUCAUUGCUGGGAGAAAAGGUAGUUGGGCGAUCCACAAAGGCAUGUGGGCGAUGACCCACCUACUG [OLE83-191 M1] | binds |  |  |
| GGAUCGAUGAAGCUCCUUGUGAUGGCUUGAGGCGCCCAGCCUUGGGUCAUUGCUGGGAGAAAAGGUAGUAGCGCGAUCCACAAAGGCAUGUGGGCGAUGACGCUCCUACUG [OLE83-191 M5] |  | binds more weakly |  |
| GGAUCGAUGAAGCUCCUUGUGAUGGCUUGAGGCGCCCAGCCUUGGGUCAUUGCUGGGAGAAAAGGUAGUACGGCGAUCCACAAAGGCAUGUGGGCGAUGACCGUCCUACUG [OLE83-191 M6] |  | binds more weakly |  |

A negative result means that nothing was seen under these conditions. Where a protein sequence is shown, tags need not be part of it. For at least one entry, the source does not settle the construct or the ends of the probe. The comparison behind a weaker result is the experiment's own reference, which may not be listed here.
